As usually defined, the AC50 is the concentration at which the activity in the assay is half-maximal. A low value points to activity at low concentration.

The experiment in a line: qHTS Assay for Lipid Storage Modulators in Drosophila S3 Cells.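 As to cell number change: cells counted by Cell Tracker Red CMTPX staining in the red channel.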 As to conditions: BODIPY lipid droplet fluorescence, 18-24 h; for cell number change: measured here: cell count max response, cells fed with added oleic acid. The essentials: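 Drosophila S3 cells loaded with oleic acid (400 uM, as added) and compounds at several concentrations; lipid droplets imaged by 488-nm laser-scanning cytometry, 500–530 nm intensity and object ratio to cell channel. Percent activity normalized to 20 uM Triacsin C.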
(In general: Quantitative high-throughput screening tests each substance at several concentrations.)

Where [1] appears, read: measured here: cell number channel AC50, cells fed with added oleic acid.
[2] abbreviates: measured here: lipid fluorescence (Fed channel) AC50, cells fed with added oleic acid.

Some of the results follow. The main result of the screen is listed elsewhere. These columns were measured beside it and carry no call. The list favours compounds with an active or inconclusive main result. Words in brackets tell the shape of the fitted curve; partial curves, single points and poor fits give uncertain potencies.

For the compound `CC(=O)N1C(Nc2ccc(Cl)cc2)CCN1c1ccccc1` (configuration not stated), the cell number change was -106%. Under setting [1], the AC50 is 7.31 µM [falling, partial curve, poor fit]. Besides, the AC50 under setting [2] was 18.4 µM [falling, partial curve].

As for `Cc1ccc(OCC(=O)N(Cc2ccco2)C2CCS(=O)(=O)C2)cc1` (configuration not stated), the cell number change was -5.73%. Also, the AC50 under setting [2] is 23.1 µM [rising, single point].

Take `CCCn1nc2cc(C(=O)NCc3ccccc3)ccc2c1OCC`: the cell number change was -22.6%. Moreover, under setting [2], the AC50 was 1.84 µM [falling, partial curve].

With `CCCC(=O)N1CCC(CCC(=O)NC2CC2)CC1`, the cell number change was found to be 15.3%. Besides, the AC50 under setting [2] was 0.58 µM [falling, single point].

Take `CN(Cc1ccccc1)C(=O)CCC1CCN(C(=O)c2ccccc2C(F)(F)F)CC1`: the cell number change was -1.08%. Moreover, the AC50 under setting [2] is 0.0651 µM [falling, full curve, poor fit].

For the compound `O=C(Nc1cccc(O)c1)c1cc(-c2cccs2)on1`, the cell number change was found to be 14.2%. The concentration at half-maximal activity (AC50) under setting [2] was 1.64 µM [falling, partial curve].

As for `NC(=O)c1nsc(C(=O)N(c2ccccc2)C(C(=O)NCC2CCCO2)c2ccc(F)cc2)c1N` (configuration not stated), the cell number change is -1.74%. In addition, the AC50 under setting [2] is 18.4 µM [falling, partial curve, poor fit].

With `CCCc1nc2ccccc2c(=O)n1/N=C/c1c(C)[nH]n(-c2ccc(C)cc2)c1=O`, the cell number change is -14.7%. In addition, under setting [2], the AC50 was 0.92 µM [rising, full curve].

For the compound `CC(C)OCCCNC(=O)C1CCC(CNS(=O)(=O)c2ccc(Cl)cc2)CC1` (configuration not stated), the cell number change was -2.17%. In addition, the half-maximal activity concentration (AC50) under setting [1] was 0.291 µM [falling, partial curve, poor fit]. Further, under setting [2], the AC50 is 0.291 µM [falling, partial curve, poor fit].

Turning to `COc1ccc(C(=O)N2CCC(C(=O)O)CC2)c2ccccc12`, the cell number change was 38.8%. Under setting [1], the AC50 is 25.9 µM [rising, single point]. Besides, under setting [2], the concentration at half-maximal activity (AC50) was 1.16 µM [rising, single point].

Regarding `CC1CCC(C(C)C)C(OC(=O)C[n+]2cc(-c3ccc(Cl)cc3)n3c2CCC3)C1` (configuration not stated), the cell number change is -65.5%. In addition, the AC50 under setting [1] was 23.1 µM [falling, partial curve, poor fit]. Under setting [2], the AC50 was 29.1 µM [falling, single point].

On to `CCc1ccc(C2CC(c3ccc(C)cc3)Nc3nc(N)nn32)cc1` (configuration not stated), for which the cell number change was found to be 8.48%. For the same compound, the half-maximal activity concentration (AC50) under setting [2] is 2.91 µM [rising, partial curve].

As for `O=c1cc(CN2CCC(Cc3ccccc3)CC2)nc2sccn12`, the cell number change was -2.71%.

Take `O=C(CNC(=O)c1ccc(Br)o1)Nc1cccc(-c2cnc3ccccc3n2)c1`: the cell number change was -43.4%. Under setting [1], the AC50 is 20.6 µM [falling, single point]. Further, the half-maximal activity concentration (AC50) under setting [2] is 18.4 µM [falling, single point].

For `COc1ncc(-c2ccc3c(c2)S(=O)(=O)c2cccc(C(=O)O)c2C3=O)cn1`, the cell number change was 19.9%. Further, under setting [2], the concentration at half-maximal activity (AC50) is 6.51 µM [falling, single point].

For the compound `CCCNC(=O)NC(=O)CN1CCCC1c1ccc2c(c1)OCCO2` (configuration not stated), the cell number change is 26.5%.

`COc1ccc(CCNCC(=O)Nc2ccc(C)c(S(=O)(=O)N(C)C)c2)cc1`: the cell number change is -2.2%.

Turning to `O=C(CSc1ccccc1F)NCC1(N2CCCCC2)CCCCC1`, the cell number change came to 1.25%. In addition, under setting [2], the AC50 was 29.1 µM [rising, single point].

Take `CCOc1cccc(CNc2ccc(O)cc2)c1OCc1ccccc1Cl`: the cell number change was -69.4%. For the same compound, the AC50 under setting [1] is 29.1 µM [falling, single point]. For the same compound, the AC50 under setting [2] is 16.4 µM [falling, single point].

Regarding `CN1CCN(c2ccc([N+](=O)[O-])cc2/C=N/NC(=O)c2ccc(F)cc2)CC1`, the cell number change amounted to 28.1%.

Consider `COc1cc(/C=C(/C#N)c2ccc(C)cc2)ccc1Oc1ccc([N+](=O)[O-])cn1`, for which the AC50 was 1.3 µM [rising, full curve] under setting [1] and 1.3 µM [rising, full curve] under setting [2].

In the case of `COc1ccc(CNC(=O)COC(=O)c2ccc(OCc3c(C)noc3C)cc2)cc1OC`, the cell number change is -79.8%. In addition, the AC50 under setting [1] was 1.84 µM [falling, partial curve]. Also, under setting [2], the half-maximal activity concentration (AC50) is 0.00517 µM [falling, full curve, poor fit].

On to `Cc1ccc(C)c(S(=O)(=O)N2CCN(C(=O)CNC(=O)c3ccc4ccccc4c3)CC2)c1`, for which the cell number change is -10%.

Consider `O=C(CSc1nnc(-c2ccco2)o1)Nc1c(F)cccc1F`, for which the AC50 under setting [2] is 0.092 µM [falling, full curve].

As to `Cc1noc2ncc(C(=O)c3cc(F)ccc3O)cc12`, the half-maximal activity concentration (AC50) under setting [2] is 4.11 µM [rising, single point].

Consider `N#C/C(=C\c1c(Oc2ccccc2F)nc2ccccn2c1=O)C(=O)NC1CCS(=O)(=O)C1` (configuration not stated), for which the cell number change was determined as 23%. The AC50 under setting [2] is 29.1 µM [falling, single point].

Consider `Cc1cc(C)cc(NC(=O)c2cccc(NC3=NC4CS(=O)(=O)CC4S3)c2)c1` (configuration not stated), for which the cell number change was -15%. The AC50 under setting [2] is 16.4 µM [falling, partial curve, poor fit].

In the case of `CC1CCCN(C(=O)c2cc(-c3ccco3)nc3ccccc23)C1` (configuration not stated), the cell number change was -48.8%. Further, under setting [1], the AC50 was 1.03 µM [falling, full curve, poor fit]. Also, the AC50 under setting [2] was 1.03 µM [falling, full curve, poor fit].

Turning to `CNC(=S)Nc1cc(OC)ccc1OC`, under setting [2], the half-maximal activity concentration (AC50) is 0.731 µM [falling, full curve].

Turning to `Cc1ccccc1OCC(=O)N/N=C1\SCC(=O)N1Cc1ccccc1`, the cell number change is -13.7%. In addition, the AC50 under setting [2] is 20.6 µM [rising, single point].

Turning to `CCN(CC)CCOC(=O)c1ccc(Cl)cc1`, the cell number change was 15.2%. Moreover, under setting [2], the half-maximal activity concentration (AC50) was 29.1 µM [rising, single point].

As for `Cc1onc(-c2c(F)cccc2Cl)c1C(=O)NCc1ccc2c(c1)OCO2`, the cell number change came to 4.32%. For the same compound, the half-maximal activity concentration (AC50) under setting [2] is 0.103 µM [rising, full curve, poor fit].

Turning to `O=C(Oc1ccccc1-c1csnn1)c1cccs1`, the cell number change was -13.6%. For the same compound, the AC50 under setting [1] was 4.61 µM [falling, single point].

On to `CCc1nnc2c(NCCc3ccc(OC)c(OC)c3)nc3ccccc3n12`, for which the cell number change worked out at 8.33%. Also, the AC50 under setting [2] is 14.6 µM [rising, partial curve].

`COC(=O)c1cc(S(=O)(=O)NCc2ccc(S(N)(=O)=O)cc2)oc1C`: the cell number change is -49.1%.

In the case of `CCSc1nc(C)cc(Oc2ccc(=O)n(C)n2)n1`, under setting [2], the AC50 is 6.51 µM [falling, single point].

`COc1ccc2nc3ccccc3nc2c1NC(=O)c1ccc(Cl)cc1`: the cell number change is 36%. Moreover, the half-maximal activity concentration (AC50) under setting [1] is 7.31 µM [rising, partial curve]. The AC50 under setting [2] was 16.4 µM [falling, single point].

Consider `COc1ccccc1C(=O)Nc1ccc(S(=O)(=O)N2CCc3ccccc32)cc1`, for which the AC50 under setting [2] is 23.1 µM [rising, partial curve].

For `N#C/C(=C\c1ccc(Cl)cc1)c1nc(-c2ccco2)cs1`, the cell number change is -12.7%. The AC50 under setting [2] was 18.4 µM [falling, single point].

`Cn1c(SCC(=O)N2CCOCC2)nnc1-c1ccc2ncccc2c1`: the AC50 is, setting by setting: under setting [1], 1.03 µM [falling, full curve]; under setting [2], 0.13 µM [falling, full curve, poor fit].

For the compound `COc1ccc(OC)c(NC(=O)Cn2c(CCC(=O)O)ccc2-c2ccc(C)cc2)c1`, the AC50 under setting [1] is 0.58 µM [falling, single point].

As to `S=C(NCCCN1CCOCC1)Nc1ccc(Nc2ccccc2)cc1`, the cell number change amounted to 7.12%. Besides, under setting [1], the half-maximal activity concentration (AC50) was 0.501 µM [falling, single point]. Besides, the AC50 under setting [2] is 0.501 µM [falling, single point].

`COc1cc(Cl)c(CN2CCC(CCC(=O)NC3CC3)CC2)cc1OC`: the cell number change was -33.9%. Moreover, the half-maximal activity concentration (AC50) under setting [1] was 0.58 µM [falling, partial curve, poor fit]. The AC50 under setting [2] was 20.6 µM [falling, partial curve, poor fit].

As to `COc1cc(CCCN2CCNC[C@@H]2C(C)O)cc(OC)c1OC` (some centres not stated), the cell number change came out at 18.5%. Besides, the AC50 under setting [2] is 0.13 µM [rising, full curve, poor fit].

As to `S=c1nc2ccccc2c2nc(-c3cccnc3)[nH]n12`, the cell number change stood at 26.1%. In addition, the AC50 under setting [2] was 29.1 µM [rising, single point].

Consider `Cc1ccc2c(c1)NC(=O)C(CC(=O)NCCCN1CCCCC1C)O2` (configuration not stated), for which the cell number change was -3.99%. Besides, the AC50 under setting [2] was 29.1 µM [rising, single point].

On to `COc1ccc(NC(=O)c2cc(C3CC3)nc3c2cnn3C(C)C)cc1OC`, for which the cell number change was -14.5%. Moreover, the half-maximal activity concentration (AC50) under setting [2] was 1.64 µM [falling, partial curve].

With `Cc1ccc(NC(=O)C2CCCN(S(=O)(=O)c3c(C)noc3C)C2)cc1F` (configuration not stated), the cell number change was -17.2%. The half-maximal activity concentration (AC50) under setting [1] is 0.103 µM [falling, full curve, poor fit]. For the same compound, the half-maximal activity concentration (AC50) under setting [2] is 2.06 µM [falling, single point].

Regarding `COc1ccc(-c2csc(NC(=O)c3ccccc3S(C)(=O)=O)n2)cc1`, the cell number change was determined as 57.4%. Under setting [1], the AC50 is 0.92 µM [rising, partial curve, poor fit]. Besides, under setting [2], the concentration at half-maximal activity (AC50) is 5.8 µM [rising, full curve].

As for `CC(C)C[C@H](NC(=O)c1cc2cc(Cl)ccc2n1C)C(=O)N1CCC(C(=O)O)CC1`, the cell number change was determined as 16.8%. Moreover, the AC50 under setting [1] is 6.51 µM [rising, partial curve].

On to `Cc1ccc(C(=O)OCC(=O)NCc2ccco2)cc1C`, for which the cell number change is -20.3%. Besides, the AC50 under setting [2] is 0.58 µM [rising, single point].

With `CCOc1ccc2[nH]c3nc(SCC(=O)NC4CC4)nnc3c2c1`, the concentration at half-maximal activity (AC50) under setting [2] was 0.146 µM [falling, full curve, poor fit].

As to `CCCCn1c(-c2cccc(Br)c2)nc2cc3[nH]c(=O)c(C(C)C)nc3cc21`, the cell number change was -23.3%. Moreover, under setting [2], the half-maximal activity concentration (AC50) is 29.1 µM [falling, single point].

For `Cc1nn(C2CCS(=O)(=O)C2)c(Cl)c1/C=C/C(=O)OCC(=O)Nc1ccccc1[N+](=O)[O-]` (configuration not stated), the AC50 reads like this: under setting [1], 0.00461 µM [rising, full curve, poor fit]; under setting [2], 0.184 µM [rising, full curve].

Regarding `COC(=O)c1cc(Br)c(=O)n(-c2nccs2)c1`, the cell number change is -2.64%. Moreover, the concentration at half-maximal activity (AC50) under setting [2] is 0.58 µM [rising, full curve].

For `Cc1nn(Cc2noc(C(=O)NCCc3ccccn3)n2)c(C)c1Br`, the cell number change came to 18.5%. In addition, the concentration at half-maximal activity (AC50) under setting [2] is 29.1 µM [falling, single point].
